Experimental data: paper PMC7289862, “Real-time tracking reveals catalytic roles for the two DNA binding sites of Rad51” (Nature Communications, 2019)

Experiments:
[1] = target: T1, Rad51-L1 R257A (Schizosaccharomyces pombe) (UniProt P36601); test: fluorescence anisotropy; settings: 1 mM ATP, 3 mM MgCl2, near-complete loss, Kd N.D., 30 mM HEPES-KOH pH 7.5, 100 mM KCl, 3 mM MgCl2, 1 mM DTT, 5% glycerol, 25 C (EMSA: 2 mM ATP, 37 C, then 0.2% glutaraldehyde), recombinant protein, label: 5' TAMRA on strand 1
T1 sequence (looked up, limits assumed): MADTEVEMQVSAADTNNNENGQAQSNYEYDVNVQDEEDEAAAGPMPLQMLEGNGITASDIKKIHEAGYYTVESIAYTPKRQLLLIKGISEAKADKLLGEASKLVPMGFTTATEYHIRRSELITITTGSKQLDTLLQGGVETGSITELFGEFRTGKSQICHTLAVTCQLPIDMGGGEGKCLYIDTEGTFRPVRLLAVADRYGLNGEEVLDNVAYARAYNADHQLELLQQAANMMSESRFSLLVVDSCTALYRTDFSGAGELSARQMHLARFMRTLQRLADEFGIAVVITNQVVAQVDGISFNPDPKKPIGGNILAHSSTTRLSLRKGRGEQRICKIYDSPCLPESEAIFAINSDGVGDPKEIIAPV

[2] = target: T2, Rad51-S2 R324A,K334A (Schizosaccharomyces pombe) (UniProt P36601); test: fluorescence anisotropy; settings: 1 mM ATP, 3 mM MgCl2, some binding retained, Kd N.D., 30 mM HEPES-KOH pH 7.5, 100 mM KCl, 3 mM MgCl2, 1 mM DTT, 5% glycerol, 25 C (EMSA: 2 mM ATP, 37 C, then 0.2% glutaraldehyde), recombinant protein, label: 5' TAMRA on strand 1
T2 sequence (looked up, limits assumed): T1 sequence (looked up, limits assumed) with A257R, R324A, K334A

AAATGAACATAAAGTAAATAAGTATAAGGATAATACAAAATAAGTAAATGAATAAACATAGAAAATAAAGTA (double strand) [[TAMRA]16A(-)_72 bp duplex]
binding result [1]: binds more weakly
binding result [2]: binds more weakly

Residue numbers refer to the chain shown, from its start. Construct, isoform or probe ends are uncertain for at least one entry. Weaker means in comparison with the reference protein, sequence or condition of that experiment. Protein sequences can lack the tags named with them.
